Experimental data published in the supplement of paper PMC3334620.
In all, about 33,000 sequences were measured (“E-score (-0.5 to 0.5)”: median about -0.0014, highest 2% from about 0.25 on). Some of the results follow.

target: T1, Cad1 (UniProt P24813); test: PBM E-score (8-mer binding enrichment) (E-score (-0.5 to 0.5)); higher = stronger / more preferred TF binding; details: protein concentration: 100 nM; construct: GST-full length
T1 sequence: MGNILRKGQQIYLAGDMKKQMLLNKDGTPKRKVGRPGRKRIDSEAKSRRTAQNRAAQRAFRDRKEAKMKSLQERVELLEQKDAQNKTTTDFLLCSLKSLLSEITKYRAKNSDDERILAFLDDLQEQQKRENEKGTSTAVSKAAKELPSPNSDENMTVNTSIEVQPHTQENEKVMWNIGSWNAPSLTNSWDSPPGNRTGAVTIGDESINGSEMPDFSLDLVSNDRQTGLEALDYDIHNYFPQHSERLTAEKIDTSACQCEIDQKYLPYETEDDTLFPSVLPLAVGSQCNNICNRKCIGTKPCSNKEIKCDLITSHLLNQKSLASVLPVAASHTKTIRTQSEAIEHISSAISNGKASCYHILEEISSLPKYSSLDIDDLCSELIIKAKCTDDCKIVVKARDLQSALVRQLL
In short: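 Bound GST-tagged yeast transcription factors, applied at about 100-200 nM to double-stranded universal all-10-mer Agilent arrays, were detected with fluorescent anti-GST. Scans were normalised with masliner. A modified Wilcoxon-Mann-Whitney statistic, the E-score, was assigned to each ungapped eight-base word pooled with its reverse complement by the Universal PBM Analysis Suite.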

Row | Sequence | PBM E-score
1 | ACACATAG | 0.0113
2 | GACTCGTA | -0.123
3 | AGAGTGTG | 0.0352
4 | ACAGTTAG | -0.0912
5 | AGCGTCAT | -0.0217
6 | CAAAGCGG | 0.0684
7 | CACTATGG | -0.147
8 | CTTTACGC | 0.00543
9 | CAATCCAG | 0.0792
10 | AGCTATTA | 0.0722
11 | TCTGACAA | 0.25
12 | CCGTTCCA | -0.127
13 | CGCAACTA | 0.104
14 | CGTTAACG | 0.127
15 | CAAGAACC | 0.188
16 | TGCCGTAA | -0.0404
17 | GAGCCTAA | -0.0463
18 | GAAGGCGC | -0.151
19 | ATAATTCA | 0.231
20 | TCTGCAAA | -0.116
21 | AGAGCCTA | -0.143
22 | AGCGCCGA | -0.0579
23 | GTACATAC | -0.0558
24 | ATCACAAC | 0.168
25 | CTCCTTTA | -0.227

Row | Sequence | PBM E-score
26 | AAGAAATA | 0.14
27 | ATGCTATA | -0.0309
28 | GCAATAGA | -0.12
29 | AACACGTT | 0.0313
30 | GCTCCACA | -0.257
31 | ACGAAAAG | 0.0611
32 | CAACTGAC | -0.0722
33 | GAAAAAGC | 0.0104
34 | AATGGGAA | -0.104
35 | AACATGGC | -0.185
36 | GGGGCACC | -0.283
37 | ATACAATG | 0.0735
38 | CGGTGAAA | 0.128
39 | AAGAAGAT | -0.0313
40 | AAAGTAAA | -0.0556
41 | CTTTTCCC | -0.154
42 | ATGAGTAA | 0.286
43 | AGAAAGTG | -0.0968
44 | ATTGCATC | 0.0875
45 | GGAGGCGA | -0.234
46 | AATCCTTG | 0.111
47 | AAAGGCAT | -0.0062
48 | AGCTGAGC | -0.09
49 | CTGCGATC | -0.06
50 | AAGTCAAC | 0.0445

Row | Sequence | PBM E-score
51 | CAGCGACC | -0.301
52 | AATATCAC | 0.125
53 | AGTTCTCG | 0.162
54 | TCGCCAAA | -0.0355
55 | ATTTGCTG | 0.145
56 | CCTCATTA | 0.0805
57 | ATCTTAAA | 0.131
58 | ACGGCTCT | -0.0116
59 | ATCCCCGA | -0.159
60 | CAATAAGA | 0.0132
61 | ATACTTCA | -0.0179
62 | CAAGCGGA | -0.131
63 | GAGCCCCC | -0.447
64 | CCTTGCTA | -0.00856
65 | CTAGTGAG | -0.0727
66 | ATCTTAAG | -0.0679
67 | CTTAACTA | 0.283
68 | CGTCTGAC | 0.0953
69 | TGTAACAA | 0.0148
70 | CAGGTGGA | -0.0519
71 | AATAGGGC | -0.064
72 | ACTTTCAT | 0.0146
73 | ATCAGAAA | 0.1
74 | AACGCCCC | -0.131
75 | ATTCTCAG | 0.00929

Row | Sequence | PBM E-score
76 | CAATATGA | 0.0827
77 | CACCGCCG | -0.257
78 | AATCTCTA | 0.159
79 | CGTTGCAA | 0.0608
80 | ATACCCTA | 0.133
81 | CTGTATCC | -0.00598
82 | CAAGCTCG | 0.0678
83 | CCGTTGGC | -0.0613
84 | ATAAACGC | 0.086
85 | GCTAAGAC | 0.0439
86 | GTAGCCCA | -0.0454
87 | AGCCTGGC | -0.0332
88 | CGGAACGC | 0.0834
89 | GCAGGGGA | -0.418
90 | AGTTTAAC | -0.0817
91 | GATGCGGC | -0.101
92 | CGAGACTA | -0.0176
93 | CGCTTGGC | -0.142
94 | CGGACCTC | 0.0619
95 | GCTATAGA | -0.154
96 | CCGGAGTC | -0.0932
97 | CACCCCTA | -0.0998
98 | CTGCCTGC | -0.0197
99 | AGTAGACC | -0.0558
100 | GACTGTAA | 0.0554

Taken from above.
Value for CACCGCCG under PBM E-score: -0.257
Value for CACCCCTA under PBM E-score: -0.0998
Value for GTAGCCCA under PBM E-score: -0.0454
Value for AGTAGACC under PBM E-score: -0.0558
Value for CAATATGA under PBM E-score: 0.0827

The list goes on.

Row | Sequence | PBM E-score
101 | GGAGCCCA | -0.291
102 | AGAGCTGG | -0.0587
103 | GGGGCCAA | -0.249
104 | GTAGTTAA | 0.113
105 | ACTTAGGA | -0.135
106 | GCCTTTGA | -0.00314
107 | CAGACGCG | -0.0361
108 | AGTAGATG | -0.0467
109 | CAGGCCAC | -0.0933
110 | AGCTCCGA | 0.0663
111 | CGGGCCCG | 0.177
112 | CCGCTAAG | 0.111
113 | AGCTTGGC | -0.126
114 | ACTCATTG | -0.189
115 | AGCACGCG | 0.164
116 | ACCGGGAA | 0.0889
117 | GGGAGTAA | -0.0135
118 | GTGACACA | 0.159
119 | CTATTCAA | 0.154
120 | AGGGGTAC | -0.156
121 | CTAGGGCC | -0.0488
122 | CCGATCAC | 0.169
123 | AGGGCCAT | -0.175
124 | AGCCCTGC | -0.128
125 | GTTCGTCA | -0.124

Row | Sequence | PBM E-score
126 | CGTGGGGA | -0.0675
127 | TAAACCGA | -0.0449
128 | AGCCATGG | -0.0339
129 | CTCATGTC | -0.118
130 | GCAGGTGA | -0.0228
131 | AACGGCTT | -0.00056
132 | CAGATGAG | 0.089
133 | TACGGCTA | -0.144
134 | ATCGGTTC | -0.089
135 | AGCCTTCC | -0.327
136 | ACCTAACC | 0.0931
137 | CCAATCTC | 0.0449
138 | ACATGACA | 0.159
139 | AAATCAAG | -0.0621
140 | GTATCTTA | 0.287
141 | CCAAATAA | 0.15
142 | ATGGTATG | -0.0437
143 | CCAGGTGA | -0.102
144 | ACCGCTTC | -0.068
145 | AGGGGGAC | -0.447
146 | GAGACGAA | -0.0602
147 | GCGTCTCC | -0.00342
148 | CTTCGTTC | -0.0316
149 | CGTGTTCC | 0.0432
150 | CGAGACCC | 0.0594

Row | Sequence | PBM E-score
151 | ATACGGTA | 0.0931
152 | ATACCACA | 0.113
153 | GCGGTAGC | 0.00984
154 | CACCTGGC | -0.212
155 | GAGTAGGC | -0.156
156 | AGGTGCCA | -0.026
157 | AGATGGAG | -0.0255
158 | CTTGATGC | -0.0357
159 | ATAATGAT | 0.12
160 | GAAAAAAC | 0.0982
161 | CTTTCTCA | 0.121
162 | AAGAACTT | 0.223
163 | ACCCAACC | -0.00591
164 | TCGGCAGA | -0.0578
165 | AGTTAAAT | -0.069
166 | GTCAAGCA | -0.189
167 | CGGTCTCA | -0.0422
168 | GTCCCTCA | -0.154
169 | ACAGTAAG | 0.0915
170 | ATCTCCAA | 0.0729
171 | CCGGAAGC | 0.165
172 | TAAGTGGA | 0.118
